Hit rate of the full screen: of about 320,000 compounds, about 22,000 (6.9%) were called active. Inconclusive results, whose numbers are uncertain, are shown with a selection of clear calls. Calls follow the shape of the dose curve; as a rule, active = well fitted inhibition curve with a large enough effect; inconclusive = small, poorly fitted or top-dose-only effect, or another doubt; inactive = no such curve, though single readings can be large or run the other way. Potencies beside an inconclusive call are fits to weak or partial responses and may not hold up.
experiment: Primary qHTS for delayed death inhibitors of the malarial parasite plastid, 96 hour incubation; conditions: P. falciparum luciferase reporter growth; series mostly up to 28.7 µM; activity change, negative = inhibition: at the top concentration
Summary of the method: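 Luminescence readout: decreased luciferase signal marks inhibited growth of reporter-expressing P. falciparum in infected red cells (2% hematocrit, 0.05% parasitemia final), exposed to compound two generations (96 h, 37 C, 5% CO2).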
% is scaled to controls: 0 for no effect and ±100 for the full control effect; potency is read from the fitted curve at half-maximal effect.

SMILES	activity change, negative = inhibition	Potency
N#Cc1cccc2cccc(S(=O)(=O)N3CCOCC3)c12	inactive: 5.05%	–
O=C(N/N=C/c1sc(=O)n(Cc2ccc(Br)cc2)c1Cl)c1ccco1	–	active: 2.62 µM
N#CC1=C(N)Oc2c(oc(CO)cc2=O)C1c1ccsc1 (centres undefined)	–	inconclusive: 10.4 µM [inhibitor, partial curve, poor fit]
COc1ccc(-n2c(N)c(C(=O)NCc3ccco3)c3nc4ccccc4nc32)c(OC)c1	–	inconclusive: 2.62 µM [inhibitor, partial curve, poor fit]
COc1ccc(CNC(=O)COC(=O)C2CCC(C(C)(C)C)CC2)cc1 (centres undefined)	inactive: -1.14%	–
COc1ccccc1-c1cc(C(=O)NCCCn2ccnc2)no1	–	inconclusive: 0.0928 µM [inhibitor, full curve, poor fit]
CC1(C)CC(NC(=O)c2ccccc2)CC(C)(C)N1	–	inconclusive: 16.5 µM [inhibitor, partial curve, poor fit]
O=C(Nc1cc(-c2ccccc2)sc1C(=O)O)c1cccc(F)c1	–	inconclusive: 18.5 µM [inhibitor, single point]
O=C(COc1ccccc1)NC1=NCCS1	inactive: 275%	–
O=C(CCN1C(=O)C2C3C=CC(C3)C2C1=O)Nc1c(F)cccc1F (centres undefined)	–	inconclusive: 0.37 µM [inhibitor, partial curve]
Cc1cc(C)c(S(=O)(=O)NCC(CCC(=O)O)C(F)(F)F)c(C)c1 (centres undefined)	–	inconclusive: 1.17 µM [inhibitor, partial curve, poor fit]
CCCCCC(=O)Nc1cccc(C2=NOC3(C2)C[C@@H](C(N)=O)N(C(=O)c2ccc(Cl)cc2)C3)c1 (some centres undefined)	–	inconclusive: 18.5 µM [inhibitor, single point]
O=C(C1=NN(c2ccccc2)C2C(=O)N(c3ccccc3Cl)C(=O)C12)c1ccccc1 (centres undefined)	–	inconclusive: 13.1 µM [inhibitor, single point]
Cc1cc2c(s1)c(C=O)c(C(=O)NCc1ccccc1F)n2C	inactive: -21.3%	–
Clc1ccc(C2=CC(c3ccco3)n3ncnc3N2)cc1 (centres undefined)	inactive: 4.31%	–
COc1ccc(NC(=S)NC(NC(=O)/C=C/c2ccccc2)C(Cl)(Cl)Cl)cc1 (centres undefined)	–	active: 2.33 µM
Cc1ccsc1CN(C)CC(=O)NCC(=O)Nc1ccc(F)cc1	–	inconclusive: 18.5 µM [inhibitor, single point]
O=C(NC1CC2CCCC(C1)N2C(=O)N1CCCCC1)C1CCCCC1 (centres undefined)	–	active: 14.7 µM
Cc1ccc(CS(=O)(=O)c2ccc(C(=O)N3CCN(c4ccccn4)CC3)cc2[N+](=O)[O-])cc1	–	inconclusive: 5.86 µM [inhibitor, partial curve, poor fit]
COc1ccc2[nH]c3c(Cl)ncnc3c2c1	–	inconclusive: 11.7 µM [inhibitor, single point]
Cc1cc(C)n(CC(=O)N/N=C/c2ccc([N+](=O)[O-])s2)n1	inactive: 13.7%	–
CCCn1c(SCc2cc(=O)[nH]c3ccccc23)nc2c1c(=O)n(C)c(=O)n2C	–	inconclusive: 9.28 µM [inhibitor, partial curve, poor fit]
CCc1ccccc1NC(=O)CN1CCN(CC(=O)NCc2ccc(Cl)cc2)CC1	–	inconclusive: 18.5 µM [inhibitor, single point]

As a working copy, some entries already given:
SMILES	activity change, negative = inhibition	Potency
O=C(N/N=C/c1sc(=O)n(Cc2ccc(Br)cc2)c1Cl)c1ccco1	–	active: 2.62 µM
N#CC1=C(N)Oc2c(oc(CO)cc2=O)C1c1ccsc1 (centres undefined)	–	inconclusive: 10.4 µM [inhibitor, partial curve, poor fit]
COc1ccc(-n2c(N)c(C(=O)NCc3ccco3)c3nc4ccccc4nc32)c(OC)c1	–	inconclusive: 2.62 µM [inhibitor, partial curve, poor fit]
COc1ccc(CNC(=O)COC(=O)C2CCC(C(C)(C)C)CC2)cc1 (centres undefined)	inactive: -1.14%	–
COc1ccccc1-c1cc(C(=O)NCCCn2ccnc2)no1	–	inconclusive: 0.0928 µM [inhibitor, full curve, poor fit]
CC1(C)CC(NC(=O)c2ccccc2)CC(C)(C)N1	–	inconclusive: 16.5 µM [inhibitor, partial curve, poor fit]
O=C(Nc1cc(-c2ccccc2)sc1C(=O)O)c1cccc(F)c1	–	inconclusive: 18.5 µM [inhibitor, single point]
O=C(COc1ccccc1)NC1=NCCS1	inactive: 275%	–
O=C(CCN1C(=O)C2C3C=CC(C3)C2C1=O)Nc1c(F)cccc1F (centres undefined)	–	inconclusive: 0.37 µM [inhibitor, partial curve]
Cc1cc(C)c(S(=O)(=O)NCC(CCC(=O)O)C(F)(F)F)c(C)c1 (centres undefined)	–	inconclusive: 1.17 µM [inhibitor, partial curve, poor fit]
CCCCCC(=O)Nc1cccc(C2=NOC3(C2)C[C@@H](C(N)=O)N(C(=O)c2ccc(Cl)cc2)C3)c1 (some centres undefined)	–	inconclusive: 18.5 µM [inhibitor, single point]
O=C(C1=NN(c2ccccc2)C2C(=O)N(c3ccccc3Cl)C(=O)C12)c1ccccc1 (centres undefined)	–	inconclusive: 13.1 µM [inhibitor, single point]
Cc1cc2c(s1)c(C=O)c(C(=O)NCc1ccccc1F)n2C	inactive: -21.3%	–
Clc1ccc(C2=CC(c3ccco3)n3ncnc3N2)cc1 (centres undefined)	inactive: 4.31%	–

Further structures

SMILES	activity change, negative = inhibition	Potency
CCCCCCCCOC(=O)CCn1[nH]c(=O)c2ccccc2c1=O	–	active: 10.4 µM
S=C1N(c2ccccc2)C(c2ccc(Cl)cc2)N2CCCN12 (centres undefined)	–	inconclusive: 4.15 µM [inhibitor, partial curve, poor fit]
O=C(CNC(=O)c1ccc(F)cc1)c1ccccc1	–	inconclusive: 18.5 µM [inhibitor, single point]
Cc1noc(C)c1COC(=O)c1ccccc1Oc1ccccc1	–	active: 13.1 µM
COc1cccc(-c2ccc(C#N)c(SCC(=O)NCCc3ccc(Cl)cc3)n2)c1	–	inconclusive: 4.15 µM [inhibitor, single point]
COc1ccc(Cc2nc3ccc(C(=O)NC(C)c4cnn(C)c4)cc3o2)cc1 (centres undefined)	–	inconclusive: 18.5 µM [inhibitor, single point]
Oc1ccccc1N1CCN(C(c2ccccc2)c2ccccc2)CC1	–	inconclusive: 9.28 µM [inhibitor, partial curve]
COc1cccc(C(=O)N(Cc2nc(-c3cccc(C)c3)no2)C(C)C)c1OC	–	inconclusive: 18.5 µM [inhibitor, single point]
CC(Oc1ccc(Cl)cc1Cl)C(=O)N(C)c1ccccc1 (centres undefined)	–	inconclusive: 13.1 µM [inhibitor, partial curve]
CC(=O)Nc1ccc(S(=O)(=O)N[C@@H](C)C(=O)N(C)Cc2cccs2)cc1	inactive: -24.5%	–
CCCN1CCN(c2nc(-c3cccs3)nc3ccccc23)CC1	–	inconclusive: 11.7 µM [inhibitor, single point]
CC(C)NC(=O)NC(=O)COc1ccc(Br)cc1Br	inactive: 212%	–
CCOc1ccc(CCNC(=O)C2CSC3(C)CCC(=O)N23)cc1OCC (centres undefined)	–	inconclusive: 18.5 µM [inhibitor, single point]
Cc1cc(C)n(-c2nc(N(c3ccccc3)c3ccccc3)nc(-n3nc(C)cc3C)n2)n1	–	inconclusive: 11.7 µM [inhibitor, single point]
O=C1c2cccc3c(N4CCCCC4)ccc(c23)C(=O)N1CCO	–	inconclusive: 10.4 µM [inhibitor, partial curve, poor fit]
COc1ccc(-n2c(CN3CCN(Cc4ccccc4)CC3)nc3ccc([N+](=O)[O-])cc3c2=O)c(OC)c1	–	inconclusive: 1.65 µM [inhibitor, partial curve, poor fit]
Cc1cc(C)nc(N/N=C2/CCCC/C2=C\c2ccccc2)n1	–	inconclusive: 2.33 µM [inhibitor, full curve]
O=C(CSc1nnc2c(n1)[nH]c1ccccc12)NCc1ccco1	–	inconclusive: 0.657 µM [inhibitor, full curve, poor fit]
O=C1OCCN1C(=O)[C@H]1[C@H](c2ccc([N+](=O)[O-])cc2)C(c2cccc(Cl)c2)=NN1c1ccccc1	–	inconclusive: 18.5 µM [inhibitor, single point]
Cc1cc(=O)oc2c3c(cc(OCC(=O)Nc4ccc(CCO)cc4)c12)OC(C)(C)CC3	–	inconclusive: 2.62 µM [inhibitor, full curve]
O=C(N/N=C/c1ccc(Br)o1)c1ccc2c(c1)OCCO2	inactive: 8.22%	–
O=C1C=C(c2ccc(O)cc2)C[C@@H](c2ccc3c(c2)OCO3)C1	–	inconclusive: 10.4 µM [inhibitor, partial curve, poor fit]
CCCN(CCC)Cc1cc2ccccc2c2c1COC2	–	inconclusive: 4.15 µM [inhibitor, partial curve]

SMILES	activity change, negative = inhibition	Potency
O=S(=O)(c1ccc2ccccc2c1)N1CCCCCC1	–	inconclusive: 14.7 µM [inhibitor, single point]
N/C(=N\OC(=O)c1ccccc1)c1cccnc1	inactive: 0%	–
Cc1cccc(C)c1NC(=O)N1CCN(C2CCCCC2)CC1	–	inconclusive: 18.5 µM [inhibitor, single point]
Nc1nnc(SCC(=O)Nc2sc3c(c2C(=O)c2ccccc2)CCCC3)s1	–	inconclusive: 16.5 µM [inhibitor, single point]
N#Cc1c(-c2ccccc2)cc(-c2ccccc2)[nH]c1=O	–	inconclusive: 11.7 µM [inhibitor, partial curve, poor fit]
COc1cc(/C=N/NC(=O)c2nonc2C)ccc1O	inactive: -19.9%	–
CCOc1ccc2[nH]c3c(NCCOC)ncnc3c2c1	–	inconclusive: 18.5 µM [inhibitor, single point]
c1ccc(CN(Cc2ccccc2)c2ncnc3c2nnn3Cc2ccccc2)cc1	–	inconclusive: 10.4 µM [inhibitor, partial curve]
CCC1Nc2ncnc(N3CCN(c4ccccc4)CC3)c2N(Cc2ccc(C)cc2)C1=O (centres undefined)	–	active: 11.7 µM
C/C(=N\Nc1ccc(S(N)(=O)=O)cc1[N+](=O)[O-])c1cccs1	inactive: 7.59%	–
O=C(CCC1CCCN(c2ncccn2)C1)NCc1ccccc1F (centres undefined)	–	inconclusive: 18.5 µM [inhibitor, single point]
CC1CCC(C(C)C)C(OC(=O)COC(=O)c2cccn2C)C1 (centres undefined)	inactive: -0.0146% [at 5.75 µM]	–
O=C(CCl)Nc1ccc(Sc2ccc(NC(=O)CCl)cc2)cc1	–	active: 1.85 µM
Cc1cc(NC(=O)C2CCN(S(=O)(=O)c3c(C)noc3C)CC2)ccc1Br	–	inconclusive: 1.47 µM [inhibitor, full curve]
O=C1c2ccccc2C(=O)c2cc(NC(=O)C3CC3)ccc21	–	inconclusive: 16.5 µM [inhibitor, partial curve]
COc1ccc(S(=O)(=O)Oc2c(OC)cc(C(=S)N3CCOCC3)cc2OC)cc1	–	inconclusive: 18.5 µM [inhibitor, single point]
CCCN1CCN(CCCNC(=O)c2ccc3nc(N4CCC(C)CC4)sc3c2)CC1	–	inconclusive: 20.8 µM [inhibitor, partial curve, poor fit]
CC(=O)c1cnc(Nc2cccc(C)c2)s1	inactive: 53.3%	–
COc1ccc(Nc2nc(C(=O)NCc3ccco3)cs2)cc1	–	inconclusive: 18.5 µM [inhibitor, single point]
O=C(CN1CCSC1=NCc1ccccc1)c1ccc(Cl)c(Cl)c1	–	active: 9.28 µM
CCOC(=O)c1sc(-c2cccc(C(F)(F)F)c2)nc1O	–	inconclusive: 9.28 µM [inhibitor, partial curve]
CCc1ccc2oc(C(=O)NCC(c3ccc(OC)cc3)N3CCCCC3)c(C)c2c1 (centres undefined)	inactive: 44.5%	–
Cc1cccc(-c2cc(C(=O)NCc3ccccn3)c3ccccc3n2)c1	–	inconclusive: 18.5 µM [inhibitor, single point]

From PubChem BioAssay AID504834 (National Center for Advancing Translational Sciences (NCATS), 2011)
